{
  "source": "patent US6458754B1",
  "about": "“Encapsulated perfume particles and detergent compositions containing said particles” (The Procter & Gamble Company, priority 1998, dated 2002)",
  "assay": "Odor detection threshold (ODT) by gas chromatograph with sniff port and panelists",
  "parameters": "species or system human",
  "settings": "odor detection threshold of HIA perfume ingredient; tested at 50 ppb at the sniff port",
  "data": [
    {"smiles": "COc1ccc(C=O)cc1", "note": "[Anisic Aldehyde]", "values": [
      {"measurement": "ODT", "result": "<50", "unit": "PPB"}
    ]},
    {"smiles": "CC/C=C\\CCOC(=O)c1ccccc1O", "note": "[Cis-3-Hexenyl Salycilate]", "values": [
      {"measurement": "ODT", "result": "<50", "unit": "PPB"}
    ]},
    {"smiles": "CC1=CC(C)C(C=O)CC1", "note": "(centres unmarked) [Cyclal C]", "values": [
      {"measurement": "ODT", "result": "<50", "unit": "PPB"}
    ]},
    {"smiles": "C/C=C/C(=O)C1=C(C)C=CCC1(C)C", "note": "[Damascenone]", "values": [
      {"measurement": "ODT", "result": "<50", "unit": "PPB"}
    ]},
    {"smiles": "C/C=C/C(=O)C1C(C)=CCCC1(C)C", "note": "(stereo not drawn) [Damascone Alpha]", "values": [
      {"measurement": "ODT", "result": "<50", "unit": "PPB"}
    ]},
    {"smiles": "CCOC(=O)C(C)CC", "note": "(centres unmarked) [Ethyl-2-methyl Butyrate]", "values": [
      {"measurement": "ODT", "result": "<50", "unit": "PPB"}
    ]},
    {"smiles": "C=CCc1ccc(O)c(OC)c1", "note": "[Eugenol]", "values": [
      {"measurement": "ODT", "result": "<50", "unit": "PPB"}
    ]},
    {"smiles": "CC(=O)OC1CC2CC1C1CC=CC21", "note": "(centres unmarked) [Flor Acetate]", "values": [
      {"measurement": "ODT", "result": "<50", "unit": "PPB"}
    ]},
    {"smiles": "CCC(=O)OC1CC2CC1C1CC=CC21", "note": "(centres unmarked) [Frutene]", "values": [
      {"measurement": "ODT", "result": "<50", "unit": "PPB"}
    ]},
    {"smiles": "CC(=O)/C=C/C1=C(C)CCCC1(C)C", "note": "[Ionone Beta]", "values": [
      {"measurement": "ODT", "result": "<50", "unit": "PPB"}
    ]},
    {"smiles": "CC(C=O)Cc1ccc(C(C)(C)C)cc1", "note": "(centres unmarked) [Lilial]", "values": [
      {"measurement": "ODT", "result": "<50", "unit": "PPB"}
    ]},
    {"smiles": "C=CC(C)(O)CCC=C(C)C", "note": "(centres unmarked) [Linalool]", "values": [
      {"measurement": "ODT", "result": "<50", "unit": "PPB"}
    ]},
    {"smiles": "CCCCCCC#CC(=O)OC", "note": "[Methyl Octine Carbonate]", "values": [
      {"measurement": "ODT", "result": "<50", "unit": "PPB"}
    ]},
    {"smiles": "CC(C)=CC1CC(C)CCO1", "note": "(centres unmarked) [Rose Oxide]", "values": [
      {"measurement": "ODT", "result": "<50", "unit": "PPB"}
    ]}
  ]
}
